62 compounds from PubChem BioAssay AID445 (National Center for Advancing Translational Sciences (NCATS), 2006) can be followed below.

The list shows a part of the results. Shown are side measurements of this screen, not its main read-out; they come without a call. Compounds called inactive in the main read-out are mostly missing here. The note in brackets gives the kind of curve behind each potency; many fits are weak.

This experiment in a line: IkB Signaling. As to conditions: ABC-DLBCL IkBa-CBG/CBR dual luciferase ratio (green luciferase fused to IkBa over red control in OCI-Ly3 lymphoma cells), 4 h. From the text:
NIH Molecular Libraries Screening Centers Network [MLSCN]
NIH Chemical Genomics Center [NCGC]
Nuclear factor kappa-B (NF-kappa-B) plays an important role in normal B cell development and survival. Diffuse large B cell lymphoma (DLBCL) is the most commonly observed type of non-Hodgkin's lymphoma. Gene expression analysis has identified an activated B cell-like subtype of DLBCL (ABC-DLBCL) which expresses known NF-kappa-B target genes. […] However, targets upstream of IKK have been largely unexplored and so nodes upstream of IKK in the NF-kappa-B pathway remain untested due to the lack of chemical probes.
A cell-sensor assay for I-kappa-B-alpha stabilization was developed with NIH investigator Dr. R. Eric Davis in Dr. Louis M. Staudt's laboratory. The assay uses green (CBG68) and red (CBR) emitting beetle luciferases [Chroma-Glo(TM) developed by Promega Corp.] where the green luciferase is fused to I-kappa-B-alpha and the red luciferase is present in its native state. Both luciferase genes are stably present in the OCI-Ly3 human ABC DLBCL cell line, but their expression is under the control of tetracycline-inducible promoters. Following the addition of doxycycline to induce expression of the luciferases, the green luminescence in control cultures rises only slowly because the CBG fusion partner I-kappa-B-alpha is targeted by IKK activity for rapid degradation. In contrast, green luminescence rises rapidly in the presence of proteasome inhibitors or IKK inhibitors. The rise in red luminescence of CBR is not affected by proteasome or IKK inhibitors, and serves as normalization for cell number and nonspecific effects. Compounds were screened as a concentration-titration series that ranged from 57 uM to 0.7 nM.
NCGC Assay Protocol Summary:
Cells were seeded in 1536-well plates at 5000 cells/3ul in IMDM medium containing 0.5% FBS, w/o phenol red, L-glutamine, 25 mM HEPES, 3 mg/ml sodium bicarbonate. After centrifugation for 1 min. at 1000 rpm, 23 nl of compounds or DMSO were delivered to each well using a pin tool. Then 1ul 80ng/ml doxycycline was dispensed into white solid 1536-well plates and the plates were incubated at 37C/5% C02 in a cell incubator for 4 hrs. Then 4 ul Chroma-Glo luminescent substrate mix (Promega) was added to each well. The plate was incubated at R.T. for 10-15 min. The plates were measured on a ViewLux plate reader for green luminescence (540/20 nm filter) and red luminescence (618/8 nm filter). The green and red luminescent signals were corrected for red and green luminescence filter overlap using previously determined filter calibration constants (determined using the procedure outlined in the Promega Technical Manual). The %Activity was determined from the ratio of corrected green/red luminescent values. Green luminescent and ratio %Activity was determined by normalizing to the difference in signal between basal cells (0% Activity) and cells incubated with 10 uM of the proteasome inhibitor MG-132 (100% Activity). Red luminescent %Activity was normalized to the difference between red luminesence in basal cells (0%Activity) and zero luminescence (-100% Activity).
Concentration-response curves were fitted to the signals arising from the green luminescence (I-kappa-B-alpha-luciferase fusion; IkB-luc) and the red luminescence (unfused luciferase; luc) as well as the calculated ratio. The concentration-effect curves were then classified based on curve quality (r2), response magnitude and degree of measured activity. Compounds were then categorized based on their concentration-response curves for all three datasets (Ikb-luc, luc and ratio).
Keywords: IKK, I-kappa-B, IkB, IkBa, cytotoxicity, luminescence, MLSMR, MLSCN, NIH Roadmap, qHTS, NCGC

Where [1] appears, read: measured here: control luc red channel unless noted.

As for `O=C(CC(SCCO)c1ccc2c(c1)OCO2)c1ccco1` (stereo not drawn), the AC50 – broadly, the concentration giving half of the maximal activity seen – under setting [1] is 39.8 µM [falling, single point].
As for `CCOc1ccc(NC(=O)Cn2cc(C(=O)c3ccc(CC)cc3)c(=O)c3cc(OC)c(OC)cc32)cc1`, under setting [1], the AC50 was 31.6 µM [falling, single point].
With `COc1ccc2cc3cc(C(=O)N4CCN(c5cccc(Cl)c5)CC4)sc3nc2c1`, under setting [1], the AC50 is 12.6 µM [falling, partial curve, poor fit].
The same measure, in the same setting: the same measure for `CC(C)CCNC(=O)CSc1nc2ccccc2nc1Cc1ccccc1`: 39.8 µM [falling, single point].
On the same count and under the same terms, the same measure for `CCc1cccc(-n2c(C)nc3c(cnn3-c3ccc(C)c(C)c3)c2=O)c1`: 15.8 µM [falling, partial curve]; for `Cc1nnc(Sc2cc(C(=O)NCc3ccco3)c3ccccc3n2)s1`: 12.6 µM [falling, partial curve]; for `COc1cccc(NC(=O)CSc2nc3cc(OC)c(OC)cc3c3nc(-c4ccccc4)nn23)c1`: 0.0631 µM [falling, full curve, poor fit].
`NC1=NC2(CCC(c3ccccc3)CC2)n2c(nc3ccccc32)N1` (stereo not drawn): the AC50 under setting [1] was 15.8 µM [falling, partial curve].
For `C[C@H](NC(=O)OC(C)(C)C)c1nnc(SCc2c(F)cccc2Cl)o1`, the AC50 under setting [1] was 0.0398 µM [rising, full curve, poor fit].
Take `CCc1ccc(NC(=O)Cn2nc3c4ccccc4n(Cc4ccccc4)cc-3c2=O)cc1`: the AC50 under setting [1] is 39.8 µM [falling, single point].
On to `O=C(c1ccc(CSc2nc3ccncc3n2Cc2ccc(F)cc2)cc1)N1CCCCCC1`, for which, under setting [1], the AC50 is 15.8 µM [falling, partial curve].
Turning to `COCCCNC(=O)c1cc2c(=O)oc3ccc(C)cc3c2s1`, under setting [1], the AC50 was 2 µM [rising, full curve, poor fit].
With `O=C1CC(c2cccc(O)c2)c2c(nc(SCc3ccccc3F)[nH]c2=O)N1` (stereo not drawn), the AC50 under setting [1] was 12.6 µM [falling, partial curve].
With `CCOc1ccc(C(=O)N(Cc2sccc2C)C2CCS(=O)(=O)C2)cc1` (stereo not drawn), under setting [1], the AC50 is 0.00501 µM [rising, full curve].
With `Cc1ccccc1CSc1nc2n(n1)C(c1cccs1)C1=C(CCCC1=O)N2` (stereo not drawn), the AC50 under setting [1] was 12.6 µM [falling, partial curve].
`O=C(CN1CCC(C(=O)c2ccc(Cl)cc2)CC1)Nc1ccc2c(c1)OCCO2`: the AC50 under setting [1] was 15.8 µM [falling, partial curve].
As to `COc1ccc(C(=O)N=c2nc3ccccn3s2)cc1`, the AC50 under setting [1] is 1.58 µM [falling, full curve].
`O=C(CSc1ncc(-c2ccccc2)n1-c1ccccc1)NCc1ccco1`: the half-maximal activity concentration (AC50) under setting [1] was 12.6 µM [falling, partial curve].
For the compound `Cn1c(C(=O)NCc2ccccc2F)cc2oc3ccccc3c21`, the AC50 under setting [1] is 12.6 µM [falling, partial curve].
With `O=C(c1ccco1)n1nc(-c2ccccc2)nc1NCc1ccc(F)cc1`, the AC50 under setting [1] was 2.51 µM [rising, partial curve].
For `CCN1CCN(c2oc(-c3ccc(COc4ccc(C)cc4)o3)nc2C#N)CC1`, the AC50 under setting [1] was 25.1 µM [falling, single point].
For the compound `COc1ccc2oc(-c3cccc(NC(=O)c4ccc(C#N)cc4F)c3)nc2c1`, under setting [1], the AC50 is 2 µM [rising, partial curve].
On to `CCCCNC(=O)c1ccc2c(c1)NC(=O)C(CS(=O)(=O)Cc1cccc(C)c1)N2` (stereo not drawn), for which the AC50 under setting [1] was 0.00794 µM [rising, full curve, poor fit].
On to `CCOC(=O)Cn1c(=O)oc2cc(S(=O)(=O)NC3CCCc4ccccc43)ccc21` (stereo not drawn), for which the AC50 is, setting by setting: (measured here: IkB-luc green channel) 39.8 µM [falling, single point]; (measured here: control luc red channel) 15.8 µM [falling, partial curve].
As to `Cc1ccc(S(=O)(=O)N2CCN(Cc3noc(CCC(=O)N4CCCCC4)n3)CC2)c(C)c1`, the concentration at half-maximal activity (AC50) under setting [1] is 25.1 µM [falling, single point].
As to `O=C(c1ccc2c(=O)n(-c3ccccc3)c(=O)[nH]c2c1)N1CCCCC1`, the AC50 under setting [1] is 12.6 µM [falling, partial curve].
For the compound `CC(C)Cn1c(=O)c2sccc2n2c(CCCC(=O)NCCc3ccccc3)nnc12`, under setting [1], the AC50 is 25.1 µM [falling, single point].
In the case of `Cc1ccc(S(=O)(=O)c2cn(CC(=O)Nc3ccc4c(c3)OCO4)c3ccccc3c2=O)cc1`, the AC50 under setting [1] is 39.8 µM [falling, single point].
On the same count and under the same terms, for `Cc1cccc(N2CCN(C(=O)Cc3c(C(=O)O)[nH]c4ccc(Cl)cc34)CC2)c1C` the value was 15.8 µM [falling, partial curve].
Consider `Cc1ccc(Nc2nc3c(S(=O)(=O)c4ccccc4)nnn3c3ccsc23)c(C)c1`, for which, under setting [1], the AC50 is 5.01 µM [rising, full curve, poor fit].
Consider `COc1cccc(NC(=O)CSc2nc(=O)n(Cc3ccco3)c3c2CCC3)c1`, for which the AC50 under setting [1] was 10 µM [falling, partial curve].
On the same count and under the same terms, for `CCN(CC)CCCNC(=O)CSc1c2c(nc3cc(Cl)ccc13)CCCC2` the value was 25.1 µM [falling, single point]; for `C=CCC(CC=C)(CNC(=O)C(=O)Nc1cc(C)ccc1OC)c1ccc(OC)c(OC)c1`, 10 µM [falling, partial curve].
For the compound `O=C(Cn1cc(S(=O)(=O)N2CCCC2)c(S(=O)(=O)N2CCCC2)c1)Nc1cccc(F)c1`, under setting [1], the AC50 is 0.0398 µM [falling, full curve, poor fit].
Same read-out and setting: the same measure for `COc1ccccc1CNC(=O)CN1C(=O)COc2ccc(S(=O)(=O)N3CCC(C)CC3)cc21`: 31.6 µM [falling, single point]; for `COc1ccc(NC(=O)/C(C#N)=C/c2cc(C)n(-c3ccc(F)cc3)c2C)cc1`: 3.16 µM [rising, full curve, poor fit]; for `CCOC(=O)c1cccc(NC(=O)C2CCCN(S(=O)(=O)c3ccc4c(c3)oc(=O)n4C)C2)c1` (stereo not drawn): 15.8 µM [falling, partial curve].
With `CCc1ccc(NC(=O)C(C)n2nnc3sc(-c4ccccc4)cc3c2=O)cc1` (stereo not drawn), the AC50 under setting [1] was 7.94 µM [falling, partial curve].
As for `CC(C)C(=O)N(Cc1ccccc1)S(=O)(=O)c1ccc2c(c1)oc(=O)n2C`, the AC50 under setting [1] is 12.6 µM [falling, partial curve].
On the same count and under the same terms, the same measure for `Cc1nc2nncn2c(NCc2ccc(Cl)cc2)c1C`: 15.8 µM [falling, partial curve]; for `Cc1ccc(-c2cn3nc(C)c(C)nc3n2)cc1`: 3.98 µM [falling, full curve, poor fit].
As for `Cc1ccc(-n2c(=O)c3c4c(sc3n(Cc3cccc(Cl)c3)c2=O)CCC4)cc1C`, the AC50 under setting [1] is 10 µM [falling, partial curve].
For `COC(=O)c1c(NC(=O)CN2CCN(Cc3ccc4c(c3)OCO4)CC2)sc(C)c1C`, the AC50 under setting [1] is 7.94 µM [falling, partial curve].
The same measure, in the same setting: the same measure for `Cc1ccc2nc(N3CCN(Cc4ccc(F)cc4)C3=O)c(C)cc2c1`: 31.6 µM [falling, single point]; for `Cc1nc2nc(SCC(=O)O)nn2c(C)c1Cc1c(F)cccc1Cl`: 3.98 µM [falling, partial curve].
As to `Cc1ccc(CN(C(=O)COc2ccc(Cl)c(C)c2)C2CCS(=O)(=O)C2)o1` (stereo not drawn), under setting [1], the AC50 is 12.6 µM [falling, partial curve].
The same measure, in the same setting: for `COc1ccc(-c2noc(CCC(=O)Nc3ccc4c(c3)OCCO4)n2)cc1` the value was 5.01 µM [falling, full curve, poor fit]; for `Cc1nc(Nc2ccc(Cl)cc2)cc(-c2ccccc2)n1`, 7.94 µM [falling, single point].
With `O=c1c2cn[nH]c2nc(SCc2cccc(Br)c2)n1-c1ccc(Cl)cc1`, the AC50 under setting [1] is 39.8 µM [falling, single point].
In the case of `COc1ccccc1CNC(=O)NCc1noc2ccc(C)cc12`, under setting [1], the AC50 is 15.8 µM [falling, single point].
Consider `COc1ccc(CNC(=O)c2nc(SC(C)C)ncc2Cl)cc1`, for which, under setting [1], the AC50 was 10 µM [falling, single point].
Still for that read-out and setting: for `COCCCNC(=O)c1sc2nc3n(c(=O)c2c1C)CCC3` the value was 0.01 µM [falling, full curve, poor fit].
On to `O=C(Nc1ccc(F)cc1)N1CCC(c2nc3c(nnn3Cc3cccc(Cl)c3)c(=O)[nH]2)CC1`, for which the AC50 under setting [1] was 31.6 µM [falling, single point].
Consider `CCC(=O)Nc1ccc2nc(SCCOc3ccccc3)sc2c1`, for which, under setting [1], the AC50 is 0.00631 µM [rising, full curve].
For the compound `CC(=O)Nc1nonc1-c1nnc(SCC(=O)Nc2ccccc2)n1-c1ccccc1`, under setting [1], the AC50 was 15.8 µM [falling, partial curve, poor fit].
For the compound `COC(=O)CSc1nnc2n(C3CCCCC3)c(=O)c3c4c(sc3n12)CCCC4`, the AC50 under setting [1] was 31.6 µM [falling, single point].
On the same count and under the same terms, the same measure for `CCCCOc1ccc(CNC(=O)c2ccc(NC(=O)N3CCCCc4ccccc43)cc2)cc1`: 2 µM [falling, full curve, poor fit]; for `CCOC(=O)Cn1c(=O)n(CC2CCCO2)c2nc(-c3cccc(C)c3)nc(C(N)=O)c21` (stereo not drawn): 10 µM [falling, partial curve, poor fit].
Consider `CC1(C)CC(=O)C2=C(C1)OC(N)=C(C#N)C2C#Cc1ccccc1` (stereo not drawn), for which the AC50 under setting [1] was 25.1 µM [rising, partial curve] [measured here: IkB-luc green channel].
Take `COC(=O)c1ccc(-n2c(CCC(=O)O)ccc2-c2ccc(C)cc2)cc1`: under setting [1], the AC50 was 12.6 µM [falling, partial curve].
In the case of `Cc1ccc(C)c(N2CCN(Cc3nnc(-c4ccc5c(c4)OCO5)o3)CC2)c1`, the AC50 under setting [1] is 31.6 µM [falling, partial curve].
As for `CCC(=O)N1c2ccccc2CC1C(=O)NCCN1CCN(c2cccc(C(F)(F)F)c2)CC1` (stereo not drawn), the AC50 under setting [1] was 15.8 µM [falling, partial curve].
